Test [1] addresses NP-GlucC and GlucC-NP (influenza A virus (strain not stated for the Gluc fusions)) (UniProt P15682). The experiment in a line: split reporter.
For test [2] the target is unchanged. Kind of test: split reporter. This is another data set of the same source.
Test [3] addresses Flag-NP (influenza A/WSN/33 virus) (UniProt P15682). The experiment in a line: co-IP.

Sequences of proteins named here, by UniProt entry; tags and fusion partners are left off.
UniProt P15682: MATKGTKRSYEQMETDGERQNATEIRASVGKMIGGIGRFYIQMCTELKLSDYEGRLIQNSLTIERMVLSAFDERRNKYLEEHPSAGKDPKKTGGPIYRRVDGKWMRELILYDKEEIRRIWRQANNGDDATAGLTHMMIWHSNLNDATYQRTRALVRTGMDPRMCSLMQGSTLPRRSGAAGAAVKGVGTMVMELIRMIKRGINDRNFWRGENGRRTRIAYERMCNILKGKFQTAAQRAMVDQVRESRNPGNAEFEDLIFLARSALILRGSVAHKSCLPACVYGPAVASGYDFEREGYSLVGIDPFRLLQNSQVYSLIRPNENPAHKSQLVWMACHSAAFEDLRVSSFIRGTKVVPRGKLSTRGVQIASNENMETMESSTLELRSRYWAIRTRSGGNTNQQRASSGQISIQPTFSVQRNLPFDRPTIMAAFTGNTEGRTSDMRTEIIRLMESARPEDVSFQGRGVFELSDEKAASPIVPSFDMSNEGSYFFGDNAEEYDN
UniProt Q8IYM9: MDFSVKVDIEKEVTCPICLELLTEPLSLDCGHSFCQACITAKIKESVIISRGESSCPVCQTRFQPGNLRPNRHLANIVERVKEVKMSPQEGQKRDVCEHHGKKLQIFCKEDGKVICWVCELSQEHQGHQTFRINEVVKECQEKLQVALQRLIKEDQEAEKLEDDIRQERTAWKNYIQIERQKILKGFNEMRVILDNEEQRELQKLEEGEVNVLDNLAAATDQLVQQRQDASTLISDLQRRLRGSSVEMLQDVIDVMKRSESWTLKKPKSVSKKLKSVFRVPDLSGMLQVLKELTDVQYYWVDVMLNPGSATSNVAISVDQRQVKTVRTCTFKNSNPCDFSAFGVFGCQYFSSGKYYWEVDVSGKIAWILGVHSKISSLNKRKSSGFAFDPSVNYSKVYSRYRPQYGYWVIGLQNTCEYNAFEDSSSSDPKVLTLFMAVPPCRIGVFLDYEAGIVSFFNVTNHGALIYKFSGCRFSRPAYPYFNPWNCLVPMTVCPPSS

Read-outs that look alike come from different tables or passages of the source. No constants are given. Whether binding was seen depends on the method and setting. Binding seen in cells or lysates may run through a third protein. Some results given as binding are weak or reduced against the parent protein; the word gives no strength. For part of these data: Sequences can lack the tags named with a protein.

As to TRIM22 (from UniProt Q8IYM9 1-498), the binding entry in test [1] is “binds”.

B1: TRIM14-GlucN and GlucN-TRIM14 (protein, UniProt Q14142 1-442)
chain: MAGAATGSRTPGRSELVEGCGWRCPEHGDRVAELFCRRCRRCVCALCPVLGAHRGHPVGLALEAAVHVQKLSQECLKQLAIKKQQHIDNITQIEDATEKLKANAESSKTWLKGKFTELRLLLDEEEALAKKFIDKNTQLTLQVYREQADSCREQLDIMNDLSNRVWSISQEPDPVQRLQAYTATEQEMQQQMSLGELCHPVPLSFEPVKSFFKGLVEAVESTLQTPLDIRLKESINCQLSDPSSTKPGTLLKTSPSPERSLLLKYARTPTLDPDTMHARLRLSADRLTVRCGLLGSLGPVPVLRFDALWQVLARDCFATGRHYWEVDVQEAGAGWWVGAAYASLRRRGASAAARLGCNRQSWCLKRYDLEYWAFHDGQRSRLRPRDDLDRLGVFLDYEAGVLAFYDVTGGMSHLHTFRATFQEPLYPALRLWEGAISIPRLP
For B1, the binding entry in test [2] was “binds”.

B2: HA-TRIM14 (protein, UniProt Q14142 1-442)
chain: MAGAATGSRTPGRSELVEGCGWRCPEHGDRVAELFCRRCRRCVCALCPVLGAHRGHPVGLALEAAVHVQKLSQECLKQLAIKKQQHIDNITQIEDATEKLKANAESSKTWLKGKFTELRLLLDEEEALAKKFIDKNTQLTLQVYREQADSCREQLDIMNDLSNRVWSISQEPDPVQRLQAYTATEQEMQQQMSLGELCHPVPLSFEPVKSFFKGLVEAVESTLQTPLDIRLKESINCQLSDPSSTKPGTLLKTSPSPERSLLLKYARTPTLDPDTMHARLRLSADRLTVRCGLLGSLGPVPVLRFDALWQVLARDCFATGRHYWEVDVQEAGAGWWVGAAYASLRRRGASAAARLGCNRQSWCLKRYDLEYWAFHDGQRSRLRPRDDLDRLGVFLDYEAGVLAFYDVTGGMSHLHTFRATFQEPLYPALRLWEGAISIPRLP
B2: the binding entry in test [3] was “binds”.

The values are drawn from PMC6401474.
